Values as published with doi:10.1371/journal.pone.0140310, rounded.

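Human melanoma cell lines in 1,536-well plates were treated with a pair of drugs for 72 h, then fixed, stained and imaged. Values are the share of nuclei positive for cleaved PARP as a percentage of the same share in the DMSO control: 100 is the control level, higher means more apoptosis. Concentrations were fixed for each drug; these are the higher of two levels. The file gives one value for each pair and line, without errors, so small differences may be noise. The marker varies much from line to line, for technical or biological reasons.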
This is part of the screen, not chosen by result.
An entry leaves out what has no value listed here.
A dash means that no value is listed here.

Drug key:
FH535: Cc1cc([N+](=O)[O-])ccc1NS(=O)(=O)c1cc(Cl)ccc1Cl at 5 µM
sunitinib: CCN(CC)CCNC(=O)c1c(C)[nH]c(/C=C2\C(=O)Nc3ccc(F)cc32)c1C at 2 µM
OSI-906: C[C@]1(O)C[C@@H](c2nc(-c3ccc4ccc(-c5ccccc5)nc4c3)c3c(N)nccn32)C1 at 2 µM
tanespimycin: C=CCNC1=C2C[C@@H](C)C[C@H](OC)[C@H](O)[C@@H](C)/C=C(\C)[C@H](OC(N)=O)[C@@H](OC)/C=C\C=C(/C)C(=O)NC(=CC1=O)C2=O at 0.01 µM
vorinostat: O=C(CCCCCCC(=O)Nc1ccccc1)NO at 0.4 µM
indole-3-carbinol: OCc1c[nH]c2ccccc12 at 4 µM
dovitinib: CN1CCN(c2ccc3nc(-c4c(N)c5c(F)cccc5[nH]c4=O)[nH]c3c2)CC1 at 0.5 µM
NVP-TAE684: COc1cc(N2CCC(N3CCN(C)CC3)CC2)ccc1Nc1ncc(Cl)c(Nc2ccccc2S(=O)(=O)C(C)C)n1 at 0.4 µM
perifosine: CCCCCCCCCCCCCCCCCCOP(=O)([O-])OC1CC[N+](C)(C)CC1 at 2 µM
selumetinib: Cn1cnc2c(F)c(Nc3ccc(Br)cc3Cl)c(C(=O)NOCCO)cc21 at 0.075 µM
A-769662: N#Cc1c(O)c2c(-c3ccc(-c4ccccc4O)cc3)csc2[nH]c1=O at 10 µM
vismodegib: CS(=O)(=O)c1ccc(C(=O)Nc2ccc(Cl)c(-c3ccccn3)c2)c(Cl)c1 at 5 µM
T0901317: O=S(=O)(c1ccccc1)N(CC(F)(F)F)c1ccc(C(O)(C(F)(F)F)C(F)(F)F)cc1 at 7 µM
VX-702: NC(=O)c1ccc(N(C(N)=O)c2c(F)cccc2F)nc1-c1ccc(F)cc1F at 2 µM
fludarabine: Nc1nc(F)nc2c1ncn2[C@@H]1O[C@H](CO)[C@@H](O)[C@@H]1O at 1 µM
pioglitazone: CCc1ccc(CCOc2ccc(CC3SC(=O)NC3=O)cc2)nc1 (stereo not shown) at 10 µM
lestaurtinib: C[C@]12O[C@H](C[C@]1(O)CO)n1c3ccccc3c3c4c(c5c6ccccc6n2c5c31)CNC4=O at 0.02 µM

| # | Combination | 501mel | COLO 829 | COLO 800 | WM1745 | LOX IMVI | LB2518-MEL | COLO 792 | G-361 | WM3526 | UACC-257 |
|---|---|---|---|---|---|---|---|---|---|---|---|
| 1 | selumetinib and lestaurtinib | - | 131 | 59.7 | 145 | 102 | 523 | 264 | 472 | 607 | 53.2 |
| 2 | sunitinib and perifosine | - | 57.5 | 114 | 280 | 171 | 94.2 | 87.9 | 73.1 | 113 | 78.2 |
| 3 | OSI-906 and sunitinib | - | 107 | 41.9 | 236 | 234 | 191 | 294 | 43.3 | 394 | 44.0 |
| 4 | tanespimycin and perifosine | - | 108 | 105 | 148 | 90.2 | 79.1 | 131 | 185 | 90.9 | 121 |
| 5 | perifosine and vismodegib | - | 149 | 48.4 | 96.5 | 98.5 | 140 | 47.9 | 66.4 | 88.1 | 26.3 |
| 6 | T0901317 and NVP-TAE684 | 87.8 | 59.6 | 132 | 225 | 89.2 | 151 | 141 | 112 | 121 | 48.0 |
| 7 | fludarabine and selumetinib | - | 65.8 | 78.1 | 123 | 91.4 | 184 | 115 | 173 | 1310 | 2610 |
| 8 | vorinostat and tanespimycin | - | 151 | 69.1 | 129 | 52.9 | 297 | 142 | 259 | 86.6 | 124 |
| 9 | T0901317 and tanespimycin | 215 | 123 | 73.7 | - | 121 | 59.3 | 60.5 | 310 | 207 | 36.4 |
| 10 | pioglitazone and sunitinib | 274 | 49.3 | 77.0 | - | 204 | 64.6 | 220 | 131 | 173 | 127 |
| 11 | vorinostat and fludarabine | - | 36.7 | 94.5 | 79.5 | 84.1 | 207 | 124 | 194 | 2230 | 6620 |
| 12 | dovitinib and VX-702 | - | 247 | 234 | 155 | 871 | 125 | 299 | 180 | 104 | 52.3 |
| 13 | vismodegib and selumetinib | - | 199 | 180 | 128 | 128 | 136 | 195 | 123 | 240 | 86.9 |
| 14 | sunitinib and tanespimycin | - | 270 | 301 | 286 | 876 | 257 | 998 | 663 | 267 | 51.9 |
| 15 | T0901317 and perifosine | 126 | 83.8 | 132 | - | 120 | 132 | 63.3 | 222 | 102 | 168 |
| 16 | perifosine and pioglitazone | 505 | 121 | 455 | - | 244 | 140 | 70.2 | 23.4 | 119 | 30.3 |
| 17 | vorinostat and vismodegib | - | 56.5 | 81.6 | 201 | 53.2 | 59.3 | 146 | 96.8 | 117 | 196 |
| 18 | lestaurtinib and OSI-906 | - | 128 | 76.0 | 155 | 78.8 | 96.9 | 131 | 342 | 309 | 32.6 |
| 19 | fludarabine and VX-702 | - | 179 | 113 | 119 | 218 | 145 | 162 | 86.6 | 3580 | 5730 |
| 20 | VX-702 and OSI-906 | - | 91.9 | 236 | 118 | 83.3 | 75.0 | 26.6 | 49.9 | 135 | 56.0 |
| 21 | pioglitazone and lestaurtinib | 142 | 107 | 112 | - | 189 | 93.4 | 228 | 200 | 207 | 109 |
| 22 | VX-702 and sunitinib | - | 77.6 | 83.2 | 192 | 107 | 115 | 234 | 92.2 | 268 | 47.3 |
| 23 | pioglitazone and tanespimycin | 47.7 | 166 | 135 | - | 64.7 | 571 | 144 | 135 | 104 | 43.9 |
| 24 | tanespimycin and VX-702 | - | 251 | 73.4 | 151 | 63.0 | 79.0 | 84.3 | 51.9 | 138 | 38.6 |
| 25 | selumetinib and perifosine | - | 92.8 | 55.8 | 98.3 | 96.7 | 415 | 128 | 139 | 221 | 64.9 |
| 26 | A-769662 and vorinostat | 135 | 199 | 108 | 113 | 112 | 246 | 220 | 174 | 35.1 | 69.0 |
| 27 | T0901317 and FH535 | 409 | 154 | 85.7 | 154 | 86.5 | 98.5 | 222 | 1420 | 230 | 399 |
| 28 | perifosine and dovitinib | - | 115 | 114 | 188 | 34.1 | 111 | 154 | 423 | 121 | 93.7 |
| 29 | OSI-906 and dovitinib | - | 123 | 81.0 | 1170 | 130 | 260 | 239 | 377 | 168 | 107 |
| 30 | OSI-906 and vismodegib | - | 125 | 240 | 128 | 233 | 46.3 | 131 | 88.4 | 138 | 32.6 |
| 31 | selumetinib and T0901317 | 534 | 25.5 | 144 | - | 95.7 | 182 | 105 | 92.0 | 239 | 53.4 |
| 32 | pioglitazone and A-769662 | 34.1 | 62.1 | 26.0 | 104 | 104 | 63.5 | 169 | 122 | 90.7 | 74.0 |
| 33 | dovitinib and A-769662 | 78.5 | 103 | 301 | - | 167 | 199 | 117 | 148 | 148 | 128 |
| 34 | dovitinib and indole-3-carbinol | - | 155 | 132 | 146 | 143 | 49.5 | 59.6 | 144 | 149 | 130 |
| 35 | tanespimycin and NVP-TAE684 | 67.5 | 155 | 290 | - | 62.3 | 63.8 | 128 | 185 | 347 | 32.3 |
| 36 | indole-3-carbinol and fludarabine | - | 26.4 | 141 | 119 | 46.3 | 645 | 134 | 146 | 3290 | 6760 |
| 37 | vismodegib and indole-3-carbinol | - | 81.4 | 161 | 96.7 | 231 | 140 | 114 | 60.3 | 52.5 | 36.4 |
| 38 | VX-702 and FH535 | 88.4 | 274 | 58.5 | - | 56.2 | 52.1 | 111 | 419 | 142 | 79.7 |
| 39 | fludarabine and pioglitazone | 1280 | 35.0 | 131 | - | 120 | 241 | 139 | 145 | 1860 | 1700 |

Once more, the final 3:

- vismodegib and indole-3-carbinol : COLO 829: 81.4; COLO 800: 161; WM1745: 96.7; LOX IMVI: 231; LB2518-MEL: 140; COLO 792: 114; G-361: 60.3; WM3526: 52.5; UACC-257: 36.4
- VX-702 and FH535 : 501mel: 88.4; COLO 829: 274; COLO 800: 58.5; LOX IMVI: 56.2; LB2518-MEL: 52.1; COLO 792: 111; G-361: 419; WM3526: 142; UACC-257: 79.7
- fludarabine and pioglitazone : 501mel: 1280; COLO 829: 35.0; COLO 800: 131; LOX IMVI: 120; LB2518-MEL: 241; COLO 792: 139; G-361: 145; WM3526: 1860; UACC-257: 1700